# Source: the supplement of paper PMC10032668
# Protein sequences, listed by entry. Tags and fused reporters are not part of them.
# AHSA1, O95433, UniProt O95433, whole entry: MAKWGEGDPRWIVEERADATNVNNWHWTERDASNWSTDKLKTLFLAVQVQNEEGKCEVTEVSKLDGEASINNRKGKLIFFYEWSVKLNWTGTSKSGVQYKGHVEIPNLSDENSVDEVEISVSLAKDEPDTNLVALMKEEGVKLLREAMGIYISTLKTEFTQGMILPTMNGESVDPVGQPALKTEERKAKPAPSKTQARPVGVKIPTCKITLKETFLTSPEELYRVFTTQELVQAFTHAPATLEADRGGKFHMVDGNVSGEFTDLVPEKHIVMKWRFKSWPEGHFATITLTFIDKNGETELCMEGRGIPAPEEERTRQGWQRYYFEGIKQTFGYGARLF
# ATXN2, Q99700, UniProt Q99700, whole entry: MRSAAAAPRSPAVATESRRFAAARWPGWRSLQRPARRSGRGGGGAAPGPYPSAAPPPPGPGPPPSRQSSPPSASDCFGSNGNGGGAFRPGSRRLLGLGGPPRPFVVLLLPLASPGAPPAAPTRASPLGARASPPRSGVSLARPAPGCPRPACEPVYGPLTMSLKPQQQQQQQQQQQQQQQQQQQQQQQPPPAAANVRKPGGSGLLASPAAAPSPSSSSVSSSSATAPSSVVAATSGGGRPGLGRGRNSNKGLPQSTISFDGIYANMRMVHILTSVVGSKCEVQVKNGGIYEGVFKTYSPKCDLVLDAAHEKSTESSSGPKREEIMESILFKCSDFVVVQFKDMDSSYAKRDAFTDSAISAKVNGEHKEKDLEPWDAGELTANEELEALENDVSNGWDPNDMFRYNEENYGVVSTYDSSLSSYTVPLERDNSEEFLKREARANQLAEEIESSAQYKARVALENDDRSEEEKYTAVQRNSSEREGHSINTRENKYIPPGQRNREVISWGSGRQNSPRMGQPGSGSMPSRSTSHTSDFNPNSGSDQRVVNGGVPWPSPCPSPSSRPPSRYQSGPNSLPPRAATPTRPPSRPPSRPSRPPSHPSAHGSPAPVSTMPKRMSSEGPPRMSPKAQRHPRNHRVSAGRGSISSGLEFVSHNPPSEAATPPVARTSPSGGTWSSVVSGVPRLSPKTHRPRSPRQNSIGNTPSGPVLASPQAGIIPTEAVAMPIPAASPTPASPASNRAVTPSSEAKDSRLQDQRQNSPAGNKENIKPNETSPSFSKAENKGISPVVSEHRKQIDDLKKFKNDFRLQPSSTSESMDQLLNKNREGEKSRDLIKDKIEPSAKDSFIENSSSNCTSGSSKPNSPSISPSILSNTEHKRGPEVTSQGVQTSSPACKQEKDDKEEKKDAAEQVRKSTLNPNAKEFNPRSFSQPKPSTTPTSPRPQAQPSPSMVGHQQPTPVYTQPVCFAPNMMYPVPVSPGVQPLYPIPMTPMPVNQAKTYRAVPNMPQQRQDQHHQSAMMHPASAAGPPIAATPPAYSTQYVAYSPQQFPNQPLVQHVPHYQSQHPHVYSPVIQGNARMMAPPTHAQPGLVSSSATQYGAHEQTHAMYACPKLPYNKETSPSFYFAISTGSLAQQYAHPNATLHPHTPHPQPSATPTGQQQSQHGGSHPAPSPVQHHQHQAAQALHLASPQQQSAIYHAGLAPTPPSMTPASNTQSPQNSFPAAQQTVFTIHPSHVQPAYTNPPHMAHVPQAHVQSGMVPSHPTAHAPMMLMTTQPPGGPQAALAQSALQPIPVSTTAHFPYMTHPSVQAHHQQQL
# CCAR2, Q8N163, UniProt Q8N163, whole entry: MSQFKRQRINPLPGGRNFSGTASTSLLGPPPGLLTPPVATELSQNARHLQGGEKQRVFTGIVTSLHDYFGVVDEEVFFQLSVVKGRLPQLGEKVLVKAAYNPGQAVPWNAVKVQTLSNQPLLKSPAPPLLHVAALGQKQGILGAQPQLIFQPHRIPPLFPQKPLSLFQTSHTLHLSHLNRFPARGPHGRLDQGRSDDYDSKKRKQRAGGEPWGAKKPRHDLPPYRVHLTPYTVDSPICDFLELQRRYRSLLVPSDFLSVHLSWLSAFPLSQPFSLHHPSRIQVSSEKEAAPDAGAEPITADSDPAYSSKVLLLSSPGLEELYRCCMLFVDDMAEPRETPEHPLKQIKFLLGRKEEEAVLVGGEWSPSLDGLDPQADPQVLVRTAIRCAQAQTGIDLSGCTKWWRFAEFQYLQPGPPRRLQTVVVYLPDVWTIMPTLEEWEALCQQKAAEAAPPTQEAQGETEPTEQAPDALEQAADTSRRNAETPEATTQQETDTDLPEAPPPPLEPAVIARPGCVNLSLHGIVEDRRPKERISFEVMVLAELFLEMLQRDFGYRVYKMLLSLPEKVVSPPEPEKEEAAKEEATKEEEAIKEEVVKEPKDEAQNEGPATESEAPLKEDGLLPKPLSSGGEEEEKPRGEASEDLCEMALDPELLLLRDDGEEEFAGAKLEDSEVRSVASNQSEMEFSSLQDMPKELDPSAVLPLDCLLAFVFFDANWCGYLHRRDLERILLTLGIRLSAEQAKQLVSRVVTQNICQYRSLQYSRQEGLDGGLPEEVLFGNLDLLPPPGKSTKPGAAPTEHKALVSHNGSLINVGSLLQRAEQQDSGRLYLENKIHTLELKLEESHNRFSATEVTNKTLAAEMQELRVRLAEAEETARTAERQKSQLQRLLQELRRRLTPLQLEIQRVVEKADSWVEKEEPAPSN
# CHMP2B, Q9UQN3, UniProt Q9UQN3, whole entry: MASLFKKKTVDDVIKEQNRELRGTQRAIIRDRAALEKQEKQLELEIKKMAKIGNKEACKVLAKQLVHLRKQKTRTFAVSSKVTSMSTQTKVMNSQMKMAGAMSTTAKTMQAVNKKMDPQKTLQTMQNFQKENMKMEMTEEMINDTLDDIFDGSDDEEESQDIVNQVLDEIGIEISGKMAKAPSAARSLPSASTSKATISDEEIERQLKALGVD
# CKS1B, P61024, UniProt P61024, whole entry: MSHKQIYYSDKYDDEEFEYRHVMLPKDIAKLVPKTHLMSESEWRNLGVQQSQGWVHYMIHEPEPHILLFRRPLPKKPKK
# CKS2, P33552, UniProt P33552, whole entry: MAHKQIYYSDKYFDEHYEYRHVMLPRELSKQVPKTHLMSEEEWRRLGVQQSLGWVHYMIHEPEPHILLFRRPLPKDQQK
# CXXC1, Q9P0U4, UniProt Q9P0U4, whole entry: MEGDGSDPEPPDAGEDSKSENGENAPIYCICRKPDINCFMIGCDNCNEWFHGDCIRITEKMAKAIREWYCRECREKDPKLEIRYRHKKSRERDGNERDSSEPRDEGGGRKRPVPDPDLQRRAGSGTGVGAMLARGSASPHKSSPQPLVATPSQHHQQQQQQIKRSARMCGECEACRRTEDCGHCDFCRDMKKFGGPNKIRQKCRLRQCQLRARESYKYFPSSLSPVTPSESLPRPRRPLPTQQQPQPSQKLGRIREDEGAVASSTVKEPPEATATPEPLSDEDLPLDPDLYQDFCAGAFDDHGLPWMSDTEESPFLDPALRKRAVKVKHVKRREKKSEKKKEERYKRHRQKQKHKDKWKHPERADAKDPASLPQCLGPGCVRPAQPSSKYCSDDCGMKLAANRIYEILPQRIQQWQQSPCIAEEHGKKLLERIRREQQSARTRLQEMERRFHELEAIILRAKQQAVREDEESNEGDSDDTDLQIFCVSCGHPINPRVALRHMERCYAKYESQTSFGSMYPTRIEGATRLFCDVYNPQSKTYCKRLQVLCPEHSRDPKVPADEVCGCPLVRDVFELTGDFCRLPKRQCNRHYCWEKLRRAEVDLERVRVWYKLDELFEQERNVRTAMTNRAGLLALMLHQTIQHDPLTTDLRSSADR
# The other results are listed elsewhere or left out. Only hits are listed; about a third recur on repeated control peptides.
# Key:
# Assay in all cases: PRISMA enrichment of interactor (LFQ) in peptide spot vs all other peptide spots (log2 fold change); higher = stronger / more specific binding of the interactor to the peptide
# [1] = target: ADNP, Q9H2P0
# Protocol: (§1)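 PRISMA: 221 full-length sORF-encoded peptides (3-15 aa), plus SOS1/GLUT1 control peptides, were spot-synthesized on cellulose membranes in triplicate. Membranes were incubated with HEK293T lysate, and bound proteins were identified by LC-MS/MS with LFQ. Enrichment is the log2 fold change versus all other peptide spots; only significant interactors are listed (cutoff c=6, x0=2.8).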
# [2] = target: AHNAK, Q09666
# Protocol: as §1
# [3] = target: AHSA1, O95433
# Protocol: as §1
# [4] = target: ANKHD1, Q8IWZ3
# Protocol: as §1
# [5] = target: ANKRD17, O75179
# Protocol: as §1
# [6] = target: ASH2L
# Protocol: as §1
# [7] = target: ATF7IP, Q6VMQ6
# Protocol: as §1
# [8] = target: ATXN2, Q99700
# Protocol: as §1
# [9] = target: ATXN2L, Q8WWM7
# Protocol: as §1
# [10] = target: BAG6, P46379
# Protocol: as §1
# [11] = target: BAP1, Q92560
# Protocol: as §1
# [12] = target: BCOR, Q6W2J9
# Protocol: as §1
# [13] = target: BOLA3, Q53S33
# Protocol: as §1
# [14] = target: BPTF, Q12830
# Protocol: as §1
# [15] = target: C19orf47, Q8N9M1
# Protocol: as §1
# [16] = target: C19orf53, Q9UNZ5
# Protocol: as §1
# [17] = target: C1orf131, Q8NDD1
# Protocol: as §1
# [18] = target: CCAR1, Q8IX12
# Protocol: as §1
# [19] = target: CCAR2, Q8N163
# Protocol: as §1
# [20] = target: CCDC9, Q9Y3X0
# Protocol: as §1
# [21] = target: CDC42EP1, Q00587
# Protocol: as §1
# [22] = target: CGN, Q9P2M7
# Protocol: as §1
# [23] = target: CHD4, Q14839
# Protocol: as §1
# [24] = target: CHD8, Q9HCK8
# Protocol: as §1
# [25] = target: CHMP2B, Q9UQN3
# Protocol: as §1
# [26] = target: CKAP2, Q8WWK9
# Protocol: as §1
# [27] = target: CKS1B, P61024
# Protocol: as §1
# [28] = target: CKS2, P33552
# Protocol: as §1
# [29] = target: CSRP2, Q16527
# Protocol: as §1
# [30] = target: CXXC1, Q9P0U4
# Protocol: as §1
binder,measurement,setting,value
MAASSEIIIQVFVS [VPS8],PRISMA enrichment of interactor (log2),[1],4.49
same,PRISMA enrichment of interactor (log2),[2],4.55
same,PRISMA enrichment of interactor (log2),[3],5.89
same,PRISMA enrichment of interactor (log2),[4],3.99
same,PRISMA enrichment of interactor (log2),[5],4.68
same,PRISMA enrichment of interactor (log2),[6],6.34
same,PRISMA enrichment of interactor (log2),[7],4.78
same,PRISMA enrichment of interactor (log2),[8],6.53
same,PRISMA enrichment of interactor (log2),[9],7.28
same,PRISMA enrichment of interactor (log2),[10],4.74
same,PRISMA enrichment of interactor (log2),[11],5.15
same,PRISMA enrichment of interactor (log2),[12],6.27
same,PRISMA enrichment of interactor (log2),[13],6.28
same,PRISMA enrichment of interactor (log2),[14],7.21
same,PRISMA enrichment of interactor (log2),[15],4.75
same,PRISMA enrichment of interactor (log2),[16],6.01
same,PRISMA enrichment of interactor (log2),[17],4.03
same,PRISMA enrichment of interactor (log2),[18],10.3
same,PRISMA enrichment of interactor (log2),[19],5.26
same,PRISMA enrichment of interactor (log2),[20],5.31
same,PRISMA enrichment of interactor (log2),[21],4.34
same,PRISMA enrichment of interactor (log2),[22],6.67
same,PRISMA enrichment of interactor (log2),[23],5.36
same,PRISMA enrichment of interactor (log2),[24],6.66
same,PRISMA enrichment of interactor (log2),[25],4.47
same,PRISMA enrichment of interactor (log2),[26],5.14
same,PRISMA enrichment of interactor (log2),[27],4.79
same,PRISMA enrichment of interactor (log2),[28],5.25
same,PRISMA enrichment of interactor (log2),[29],4.7
same,PRISMA enrichment of interactor (log2),[30],5.05

# A portion of the results above, as a working copy:
binder,measurement,setting,value
MAASSEIIIQVFVS [VPS8],PRISMA enrichment of interactor (log2),[23],5.36
same,PRISMA enrichment of interactor (log2),[24],6.66
same,PRISMA enrichment of interactor (log2),[25],4.47
same,PRISMA enrichment of interactor (log2),[26],5.14
same,PRISMA enrichment of interactor (log2),[27],4.79
same,PRISMA enrichment of interactor (log2),[28],5.25
same,PRISMA enrichment of interactor (log2),[29],4.7
same,PRISMA enrichment of interactor (log2),[30],5.05
